log2 fold change data for 27 targets are collected here from the supplement of paper PMC12819154, “High-throughput peptide-centric local stability assay extends protein–ligand identification to membrane proteins, tissues and bacteria” (Nature Structural & Molecular Biology, 2025).

Amino acid sequences for entries named in this document (tags omitted). A change or cut given only in a name is not applied to a line headed by its entry.
UniProt Q8N140: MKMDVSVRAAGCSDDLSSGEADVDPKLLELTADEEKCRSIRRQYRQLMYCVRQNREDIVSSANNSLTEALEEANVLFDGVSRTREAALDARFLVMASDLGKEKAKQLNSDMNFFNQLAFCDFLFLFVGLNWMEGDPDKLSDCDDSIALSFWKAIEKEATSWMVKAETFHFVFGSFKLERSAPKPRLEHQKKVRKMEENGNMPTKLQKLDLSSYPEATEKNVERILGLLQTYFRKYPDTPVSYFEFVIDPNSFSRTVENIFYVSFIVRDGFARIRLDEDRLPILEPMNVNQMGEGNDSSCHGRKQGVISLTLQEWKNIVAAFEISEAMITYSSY
UniProt Q86WX3: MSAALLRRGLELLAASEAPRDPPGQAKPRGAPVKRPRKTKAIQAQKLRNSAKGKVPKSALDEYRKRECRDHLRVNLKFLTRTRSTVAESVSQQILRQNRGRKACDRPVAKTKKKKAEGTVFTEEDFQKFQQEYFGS
UniProt Q8IV38: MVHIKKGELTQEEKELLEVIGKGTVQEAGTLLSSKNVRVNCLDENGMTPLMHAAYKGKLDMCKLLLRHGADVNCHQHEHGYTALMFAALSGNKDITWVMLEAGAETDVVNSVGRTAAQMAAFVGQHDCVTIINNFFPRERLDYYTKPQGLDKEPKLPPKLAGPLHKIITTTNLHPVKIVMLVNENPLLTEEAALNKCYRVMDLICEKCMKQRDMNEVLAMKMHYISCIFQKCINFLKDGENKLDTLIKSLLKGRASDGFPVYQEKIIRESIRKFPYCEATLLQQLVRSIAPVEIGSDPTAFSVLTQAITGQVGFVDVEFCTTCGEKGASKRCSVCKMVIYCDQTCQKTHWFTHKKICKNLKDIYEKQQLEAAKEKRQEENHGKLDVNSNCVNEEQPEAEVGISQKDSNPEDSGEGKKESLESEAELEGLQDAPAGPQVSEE
UniProt Q8IX21: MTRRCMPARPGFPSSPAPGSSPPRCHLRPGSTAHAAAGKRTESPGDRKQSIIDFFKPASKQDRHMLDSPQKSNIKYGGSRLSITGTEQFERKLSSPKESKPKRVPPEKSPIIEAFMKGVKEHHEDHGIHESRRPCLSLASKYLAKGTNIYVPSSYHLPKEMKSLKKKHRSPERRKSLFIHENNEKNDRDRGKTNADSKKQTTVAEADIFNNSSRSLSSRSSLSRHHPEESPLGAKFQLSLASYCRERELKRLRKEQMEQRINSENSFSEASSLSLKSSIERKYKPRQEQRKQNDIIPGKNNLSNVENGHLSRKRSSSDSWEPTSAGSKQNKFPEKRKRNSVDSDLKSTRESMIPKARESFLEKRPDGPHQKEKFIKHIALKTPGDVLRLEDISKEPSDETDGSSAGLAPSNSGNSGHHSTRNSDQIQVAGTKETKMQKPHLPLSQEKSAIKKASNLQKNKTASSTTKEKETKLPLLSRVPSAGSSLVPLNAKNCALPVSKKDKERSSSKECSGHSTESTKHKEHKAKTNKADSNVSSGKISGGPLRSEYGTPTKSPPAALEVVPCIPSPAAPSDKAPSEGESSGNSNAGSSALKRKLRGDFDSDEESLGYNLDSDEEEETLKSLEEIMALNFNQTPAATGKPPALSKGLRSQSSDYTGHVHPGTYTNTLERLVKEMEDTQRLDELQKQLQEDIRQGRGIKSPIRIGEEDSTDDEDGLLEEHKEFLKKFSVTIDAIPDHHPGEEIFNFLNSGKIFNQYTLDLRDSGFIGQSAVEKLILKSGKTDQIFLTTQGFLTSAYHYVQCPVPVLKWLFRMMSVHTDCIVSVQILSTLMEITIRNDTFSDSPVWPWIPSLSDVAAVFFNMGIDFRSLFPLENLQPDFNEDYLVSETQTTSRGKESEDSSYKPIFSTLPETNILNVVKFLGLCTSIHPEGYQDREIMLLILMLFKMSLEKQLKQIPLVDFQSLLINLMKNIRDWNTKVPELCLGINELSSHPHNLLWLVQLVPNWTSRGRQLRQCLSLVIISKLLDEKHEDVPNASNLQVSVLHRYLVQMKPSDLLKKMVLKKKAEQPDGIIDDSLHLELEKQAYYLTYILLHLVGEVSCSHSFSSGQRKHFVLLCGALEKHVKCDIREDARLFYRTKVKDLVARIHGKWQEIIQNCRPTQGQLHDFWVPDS
UniProt Q8IY33: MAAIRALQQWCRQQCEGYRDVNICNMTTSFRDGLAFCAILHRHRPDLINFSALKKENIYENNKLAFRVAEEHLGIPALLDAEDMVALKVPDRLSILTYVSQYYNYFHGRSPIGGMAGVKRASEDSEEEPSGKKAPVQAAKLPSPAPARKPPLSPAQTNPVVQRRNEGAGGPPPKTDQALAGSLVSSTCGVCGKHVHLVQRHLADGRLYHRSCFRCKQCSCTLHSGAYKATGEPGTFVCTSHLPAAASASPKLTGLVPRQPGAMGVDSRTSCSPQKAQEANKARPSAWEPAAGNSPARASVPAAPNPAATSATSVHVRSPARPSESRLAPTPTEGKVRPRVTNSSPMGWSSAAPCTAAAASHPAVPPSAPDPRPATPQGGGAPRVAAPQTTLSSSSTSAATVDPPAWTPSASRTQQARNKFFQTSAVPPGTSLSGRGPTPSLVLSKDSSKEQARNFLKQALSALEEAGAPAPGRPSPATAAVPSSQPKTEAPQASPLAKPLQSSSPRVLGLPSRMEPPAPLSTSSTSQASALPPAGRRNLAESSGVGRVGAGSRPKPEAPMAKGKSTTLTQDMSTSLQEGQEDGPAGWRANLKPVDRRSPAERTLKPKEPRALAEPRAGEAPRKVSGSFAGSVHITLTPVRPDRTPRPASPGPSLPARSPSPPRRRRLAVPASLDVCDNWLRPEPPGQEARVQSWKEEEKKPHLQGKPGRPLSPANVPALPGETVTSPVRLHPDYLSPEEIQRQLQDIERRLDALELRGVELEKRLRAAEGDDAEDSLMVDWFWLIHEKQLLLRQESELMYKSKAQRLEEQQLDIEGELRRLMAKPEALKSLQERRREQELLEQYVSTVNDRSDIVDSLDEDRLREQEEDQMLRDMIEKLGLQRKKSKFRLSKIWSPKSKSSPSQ
UniProt Q86YP4: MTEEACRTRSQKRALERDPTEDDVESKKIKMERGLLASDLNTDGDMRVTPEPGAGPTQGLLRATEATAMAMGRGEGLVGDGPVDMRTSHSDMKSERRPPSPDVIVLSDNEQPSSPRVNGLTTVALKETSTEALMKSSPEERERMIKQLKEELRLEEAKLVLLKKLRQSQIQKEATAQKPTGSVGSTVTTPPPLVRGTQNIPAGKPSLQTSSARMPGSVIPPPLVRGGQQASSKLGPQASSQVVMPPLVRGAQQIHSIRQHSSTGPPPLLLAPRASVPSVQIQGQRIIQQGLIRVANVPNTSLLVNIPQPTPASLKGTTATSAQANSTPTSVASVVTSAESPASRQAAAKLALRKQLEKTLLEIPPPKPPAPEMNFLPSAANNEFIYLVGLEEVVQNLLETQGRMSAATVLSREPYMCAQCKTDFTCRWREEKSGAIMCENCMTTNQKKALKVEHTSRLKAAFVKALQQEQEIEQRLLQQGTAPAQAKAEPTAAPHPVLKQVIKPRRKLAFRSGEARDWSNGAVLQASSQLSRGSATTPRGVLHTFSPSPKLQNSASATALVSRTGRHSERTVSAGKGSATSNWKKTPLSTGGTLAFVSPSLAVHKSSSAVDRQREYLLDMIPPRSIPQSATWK
UniProt Q8N3P4: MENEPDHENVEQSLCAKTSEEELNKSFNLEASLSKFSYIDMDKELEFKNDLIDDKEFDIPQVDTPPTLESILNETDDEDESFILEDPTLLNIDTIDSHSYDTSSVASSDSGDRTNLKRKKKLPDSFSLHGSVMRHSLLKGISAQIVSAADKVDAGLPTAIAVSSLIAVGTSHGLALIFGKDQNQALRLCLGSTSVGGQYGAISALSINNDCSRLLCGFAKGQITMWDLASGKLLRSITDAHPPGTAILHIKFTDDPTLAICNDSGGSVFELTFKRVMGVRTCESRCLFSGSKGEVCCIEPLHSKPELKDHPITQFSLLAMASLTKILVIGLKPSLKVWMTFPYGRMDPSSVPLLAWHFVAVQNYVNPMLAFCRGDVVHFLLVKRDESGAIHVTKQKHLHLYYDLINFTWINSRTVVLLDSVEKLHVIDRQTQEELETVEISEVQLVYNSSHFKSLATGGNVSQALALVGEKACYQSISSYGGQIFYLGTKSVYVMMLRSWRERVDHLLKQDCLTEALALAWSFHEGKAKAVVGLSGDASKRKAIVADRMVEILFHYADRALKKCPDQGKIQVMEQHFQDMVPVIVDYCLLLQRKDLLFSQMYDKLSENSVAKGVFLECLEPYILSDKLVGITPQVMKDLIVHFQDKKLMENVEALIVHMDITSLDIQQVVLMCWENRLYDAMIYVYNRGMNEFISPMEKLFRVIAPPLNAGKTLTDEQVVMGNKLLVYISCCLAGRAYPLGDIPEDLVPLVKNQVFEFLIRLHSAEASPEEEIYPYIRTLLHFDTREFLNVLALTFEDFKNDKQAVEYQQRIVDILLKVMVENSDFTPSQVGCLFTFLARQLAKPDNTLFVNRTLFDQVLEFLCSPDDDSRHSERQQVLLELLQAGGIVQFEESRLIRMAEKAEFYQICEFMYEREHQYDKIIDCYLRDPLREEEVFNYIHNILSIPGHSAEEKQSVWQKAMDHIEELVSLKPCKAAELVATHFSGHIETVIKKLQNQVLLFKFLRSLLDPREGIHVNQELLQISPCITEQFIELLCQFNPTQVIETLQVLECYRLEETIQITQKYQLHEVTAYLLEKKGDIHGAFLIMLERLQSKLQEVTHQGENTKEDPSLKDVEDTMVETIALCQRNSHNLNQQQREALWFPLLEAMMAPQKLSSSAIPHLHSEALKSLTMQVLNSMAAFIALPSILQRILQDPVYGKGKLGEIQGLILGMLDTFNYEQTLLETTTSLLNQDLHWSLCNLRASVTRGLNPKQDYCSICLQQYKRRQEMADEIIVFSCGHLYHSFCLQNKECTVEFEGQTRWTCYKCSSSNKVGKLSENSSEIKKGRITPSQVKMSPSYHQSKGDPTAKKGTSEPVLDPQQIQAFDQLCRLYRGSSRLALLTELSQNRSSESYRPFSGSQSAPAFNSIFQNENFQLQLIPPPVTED
UniProt Q8IY18: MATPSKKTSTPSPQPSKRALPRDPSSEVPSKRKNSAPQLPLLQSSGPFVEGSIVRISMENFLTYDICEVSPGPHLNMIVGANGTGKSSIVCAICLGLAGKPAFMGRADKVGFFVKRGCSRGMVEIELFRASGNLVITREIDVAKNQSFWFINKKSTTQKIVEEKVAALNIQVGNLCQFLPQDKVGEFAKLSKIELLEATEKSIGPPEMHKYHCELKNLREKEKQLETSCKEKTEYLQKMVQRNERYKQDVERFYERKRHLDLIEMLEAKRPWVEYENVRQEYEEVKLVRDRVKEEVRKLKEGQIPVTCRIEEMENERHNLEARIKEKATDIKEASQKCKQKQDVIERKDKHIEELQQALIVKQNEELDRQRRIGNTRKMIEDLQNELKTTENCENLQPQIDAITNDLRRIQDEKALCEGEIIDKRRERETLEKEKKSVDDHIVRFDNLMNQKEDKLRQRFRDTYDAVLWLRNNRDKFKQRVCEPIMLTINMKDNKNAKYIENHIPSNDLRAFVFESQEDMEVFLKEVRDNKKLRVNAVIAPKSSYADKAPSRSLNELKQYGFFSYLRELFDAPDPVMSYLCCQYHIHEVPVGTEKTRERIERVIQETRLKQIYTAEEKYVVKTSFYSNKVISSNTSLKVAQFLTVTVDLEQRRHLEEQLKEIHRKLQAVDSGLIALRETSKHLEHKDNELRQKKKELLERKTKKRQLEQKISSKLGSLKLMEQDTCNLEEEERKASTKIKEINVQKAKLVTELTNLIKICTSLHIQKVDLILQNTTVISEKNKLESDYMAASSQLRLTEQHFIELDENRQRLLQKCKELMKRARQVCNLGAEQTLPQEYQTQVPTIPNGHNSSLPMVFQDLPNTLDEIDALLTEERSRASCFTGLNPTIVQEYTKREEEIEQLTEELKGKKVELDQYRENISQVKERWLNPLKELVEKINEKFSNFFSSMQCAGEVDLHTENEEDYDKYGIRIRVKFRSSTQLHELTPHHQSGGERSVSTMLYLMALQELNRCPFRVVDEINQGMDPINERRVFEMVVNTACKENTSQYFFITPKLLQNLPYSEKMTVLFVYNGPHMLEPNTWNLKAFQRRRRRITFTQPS
UniProt Q8IUW3: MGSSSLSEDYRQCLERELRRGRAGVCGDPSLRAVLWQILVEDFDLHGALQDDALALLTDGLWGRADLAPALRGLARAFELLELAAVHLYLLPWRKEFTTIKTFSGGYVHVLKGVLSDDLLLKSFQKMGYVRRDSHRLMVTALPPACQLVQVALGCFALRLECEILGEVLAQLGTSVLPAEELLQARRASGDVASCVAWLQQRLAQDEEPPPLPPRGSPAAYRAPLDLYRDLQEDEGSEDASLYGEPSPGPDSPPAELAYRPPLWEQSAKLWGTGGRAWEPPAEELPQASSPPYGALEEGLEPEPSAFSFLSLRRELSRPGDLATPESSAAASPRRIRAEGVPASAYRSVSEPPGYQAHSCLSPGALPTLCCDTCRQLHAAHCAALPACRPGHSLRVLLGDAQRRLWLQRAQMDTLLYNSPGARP

This is one part of the list. Small differences around the control level are noise.

Compound in the experiment: CN[C@@H]1C[C@H]2O[C@@](C)([C@@H]1OC)n1c3ccccc3c3c4c(c5c6ccccc6n2c5c31)C(=O)NC4 [staurosporine]
As to the kind of experiment: log2 fold change of tryptic peptide abundance, ligand vs vehicle (limited proteolysis) (log2 ratio); higher = more trypsin-susceptible (destabilized). As to conditions: ligand concentration: 20 uM; sample: K562 cleared lysate; digestion: 4 min, 22 C (HT-PELSA RT4min, Orbitrap Astral).
As for “UniProt Q8N140 (peptide sequence: ILGLLQTYFR, peptide start residue: 270)”, the log2 fold change was -0.0251.

For “RPS19BP1 (peptide sequence: GLELLAASEAPRDPPGQAKPR, peptide start residue: 9) (UniProt Q86WX3)”, the log2 fold change was found to be 0.136. In the case of “YAF2 (peptide sequence: RQPKPSSDEGYWDCSVCTFR, peptide start residue: 12) (UniProt Q8IY57)” it was -0.607; in that of “UniProt Q8N0X7 (peptide sequence: LQANWNR, peptide start residue: 335)”, 0.231.

As to “SLX4 (peptide sequence: KVDEAPSEDLLVAMALSR, peptide start residue: 412) (UniProt Q8IY92)”, the log2 fold change turned out to be 0.558.

For the target “ANKMY2 (peptide sequence: KGELTQEEKELLEVIGK, peptide start residue: 6) (UniProt Q8IV38)”, the log2 fold change was determined as 1.67.

As for “FMNL3 (peptide sequence: GGHEIILAAFDNFK, peptide start residue: 281) (UniProt Q8IVF7)”, the log2 fold change was 1.05.

Turning to “UniProt Q8IX21 (peptide sequence: HHPEESPLGAK, peptide start residue: 225)”, the log2 fold change was 0.797. Turning to “INTS1 (peptide sequence: NYMAHLVEVQHER, peptide start residue: 1284) (UniProt Q8N201)”, the log2 fold change worked out at 0.541.

As to “FOXP4 (peptide sequence: QFLLQQASGLSSPGNNDSK, peptide start residue: 75) (UniProt Q8IVH2)”, the log2 fold change was -0.57. As for “MISP (peptide sequence: ERESVLR, peptide start residue: 310) (UniProt Q8IVT2)”, the log2 fold change is -0.0888. For “ZNF444 (peptide sequence: QSHSGEKPHACPECGK, peptide start residue: 199) (UniProt Q8N0Y2)”, the log2 fold change is -0.947. In the case of “MICALL2 (peptide sequence: TPRPASPGPSLPAR, peptide start residue: 644) (UniProt Q8IY33)” it was -0.343; in that of “TTC5 (peptide sequence: LAVQMDVHDGR, peptide start residue: 170) (UniProt Q8N0Z6)”, 0.388; in that of “GATAD2A (peptide sequence: EATAQKPTGSVGSTVTTPPPLVR, peptide start residue: 173) (UniProt Q86YP4)”, 0.454. Regarding “KLHDC8B (peptide sequence: VYGTVAHQDGHLLVLGGCGR, peptide start residue: 22) (UniProt Q8IXV7)”, the log2 fold change was -0.317. In the case of “ERICH1 (peptide sequence: HAEPLTDTGSETPTAR, peptide start residue: 51) (UniProt Q86X53)” it was 0.45; in that of “ANKLE2 (peptide sequence: TSLPLSPVK, peptide start residue: 263) (UniProt Q86XL3)”, 0.185. Regarding “RPTOR (peptide sequence: SVSSYGNIR, peptide start residue: 719) (UniProt Q8N122)”, the log2 fold change came out at 0.343. In the case of “WDFY3 (peptide sequence: AHLQGPLSHPHPNPIEVR, peptide start residue: 3358) (UniProt Q8IZQ1)” it was 0.376; in that of “VPS8 (peptide sequence: AVVGLSGDASKR, peptide start residue: 530) (UniProt Q8N3P4)”, -0.787. In the case of “FAM178B (peptide sequence: ESPQAMHR, peptide start residue: 638) (UniProt Q8IXR5)” it was 0.137.

Turning to “SMC5 (peptide sequence: LQAVDSGLIALR, peptide start residue: 666) (UniProt Q8IY18)”, the log2 fold change was determined as 0.535.

Turning to “ZZZ3 (peptide sequence: ADIGLPYPQR, peptide start residue: 549) (UniProt Q8IYH5)”, the log2 fold change turned out to be 0.345. In the case of “UniProt Q8IYA2 (peptide sequence: ENVQLHKEVEEEMEK, peptide start residue: 519)” it was 0.896; in that of “CCDC117 (peptide sequence: REEEEDDDCPVR, peptide start residue: 73) (UniProt Q8IWD4)”, -0.796. In the case of “UniProt Q8IUW3 (peptide sequence: GVLSDDLLLK, peptide start residue: 113)” it was -0.00349.
